Test [1] concerns the target T1, 3xFLAG-RRP1B (UniProt Q14684).
T1 sequence: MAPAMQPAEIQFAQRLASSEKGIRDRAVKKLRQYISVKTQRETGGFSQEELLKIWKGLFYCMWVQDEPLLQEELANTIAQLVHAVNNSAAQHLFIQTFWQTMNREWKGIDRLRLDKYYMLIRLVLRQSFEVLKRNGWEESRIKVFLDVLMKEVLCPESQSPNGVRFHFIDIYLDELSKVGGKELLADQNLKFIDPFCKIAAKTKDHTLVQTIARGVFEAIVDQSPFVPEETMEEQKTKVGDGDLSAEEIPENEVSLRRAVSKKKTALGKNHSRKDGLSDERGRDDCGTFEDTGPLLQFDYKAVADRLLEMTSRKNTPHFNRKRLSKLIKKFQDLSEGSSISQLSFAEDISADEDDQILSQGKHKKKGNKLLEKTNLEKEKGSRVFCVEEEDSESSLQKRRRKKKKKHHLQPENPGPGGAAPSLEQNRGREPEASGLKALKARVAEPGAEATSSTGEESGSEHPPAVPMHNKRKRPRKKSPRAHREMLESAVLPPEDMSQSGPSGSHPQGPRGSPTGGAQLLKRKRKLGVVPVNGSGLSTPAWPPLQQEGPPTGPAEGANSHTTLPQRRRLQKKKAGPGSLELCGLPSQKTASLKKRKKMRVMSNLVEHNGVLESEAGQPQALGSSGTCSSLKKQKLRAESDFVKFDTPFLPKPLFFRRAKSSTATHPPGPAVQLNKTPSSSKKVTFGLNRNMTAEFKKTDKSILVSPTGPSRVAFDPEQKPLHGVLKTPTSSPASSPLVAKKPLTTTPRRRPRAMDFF
The test is described as follows: affinity purification with mass spectrometry.

Amino acid sequences for entries named in this document (tags omitted).
UniProt Q14690, whole entry: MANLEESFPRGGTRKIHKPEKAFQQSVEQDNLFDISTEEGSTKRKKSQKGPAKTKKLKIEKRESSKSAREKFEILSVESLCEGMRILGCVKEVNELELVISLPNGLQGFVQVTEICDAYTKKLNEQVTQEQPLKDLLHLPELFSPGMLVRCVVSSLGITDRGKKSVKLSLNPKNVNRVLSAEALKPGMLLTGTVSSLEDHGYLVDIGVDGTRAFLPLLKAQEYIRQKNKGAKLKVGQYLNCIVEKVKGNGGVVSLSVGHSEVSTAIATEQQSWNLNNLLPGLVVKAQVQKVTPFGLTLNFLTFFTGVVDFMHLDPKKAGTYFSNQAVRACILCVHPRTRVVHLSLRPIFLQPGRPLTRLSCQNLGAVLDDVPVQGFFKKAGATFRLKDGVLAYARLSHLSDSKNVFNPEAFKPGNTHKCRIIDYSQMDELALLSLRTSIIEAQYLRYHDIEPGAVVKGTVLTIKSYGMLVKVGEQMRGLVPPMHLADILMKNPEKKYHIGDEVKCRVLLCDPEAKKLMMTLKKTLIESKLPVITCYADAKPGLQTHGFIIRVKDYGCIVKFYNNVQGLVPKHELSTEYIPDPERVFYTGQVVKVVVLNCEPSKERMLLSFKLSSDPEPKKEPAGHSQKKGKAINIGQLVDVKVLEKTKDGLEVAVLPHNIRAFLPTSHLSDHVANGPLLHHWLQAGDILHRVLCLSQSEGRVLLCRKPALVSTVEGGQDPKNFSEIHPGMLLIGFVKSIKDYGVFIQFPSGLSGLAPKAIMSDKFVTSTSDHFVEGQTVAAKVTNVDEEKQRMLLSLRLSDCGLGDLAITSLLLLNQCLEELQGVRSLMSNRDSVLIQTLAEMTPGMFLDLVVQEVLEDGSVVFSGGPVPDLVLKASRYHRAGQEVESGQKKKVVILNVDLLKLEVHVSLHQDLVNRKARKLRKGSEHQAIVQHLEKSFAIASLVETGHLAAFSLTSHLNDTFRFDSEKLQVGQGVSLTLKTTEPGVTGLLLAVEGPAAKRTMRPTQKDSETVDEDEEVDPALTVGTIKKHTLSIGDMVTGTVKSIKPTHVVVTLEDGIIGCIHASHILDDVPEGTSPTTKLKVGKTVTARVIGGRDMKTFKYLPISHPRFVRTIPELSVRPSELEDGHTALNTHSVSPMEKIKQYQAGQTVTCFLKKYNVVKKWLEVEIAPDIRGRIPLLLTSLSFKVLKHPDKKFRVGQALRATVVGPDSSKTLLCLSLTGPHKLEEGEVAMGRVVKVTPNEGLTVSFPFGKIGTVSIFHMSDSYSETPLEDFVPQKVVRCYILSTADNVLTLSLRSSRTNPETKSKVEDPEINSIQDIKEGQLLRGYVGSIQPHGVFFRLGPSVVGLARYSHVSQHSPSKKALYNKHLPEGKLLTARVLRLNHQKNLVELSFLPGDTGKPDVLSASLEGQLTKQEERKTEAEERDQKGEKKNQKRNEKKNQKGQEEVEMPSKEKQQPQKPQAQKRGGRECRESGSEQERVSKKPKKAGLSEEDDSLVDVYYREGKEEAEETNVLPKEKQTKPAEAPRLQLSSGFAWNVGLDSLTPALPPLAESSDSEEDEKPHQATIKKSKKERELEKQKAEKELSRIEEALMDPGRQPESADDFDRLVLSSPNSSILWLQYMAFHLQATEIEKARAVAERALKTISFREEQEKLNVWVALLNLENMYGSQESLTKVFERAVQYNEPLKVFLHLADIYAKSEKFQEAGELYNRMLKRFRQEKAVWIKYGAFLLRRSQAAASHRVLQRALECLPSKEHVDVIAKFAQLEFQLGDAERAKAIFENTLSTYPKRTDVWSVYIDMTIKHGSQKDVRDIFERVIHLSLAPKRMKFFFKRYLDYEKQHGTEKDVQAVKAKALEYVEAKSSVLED

Test [2] deals with 3xFLAG-PDCD11 (UniProt Q14690). The test is described as follows: affinity purification with mass spectrometry.

Results are given in words; binding and its absence hold for the method and conditions named. In cells and extracts the contact can be indirect. These calls come from enrichment with a bait or labelling near it, and not all partners need be listed. For some of these results: Where a sequence is shown, tags or fusion partners need not be part of it.

“helicase DDX21 (from UniProt Q9NR30 1-783)”: the binding entry in test [1] and in test [2] was “binds” in each case.

B1: cytokine MDK (protein, UniProt P21741 21-143)
chain: VAKKKDKVKKGGPGSECAEWAWGPCTPSSKDCGVGFREGTCGAQTQRIRCRVPCNWKKEFGADCKYKFENWGACDGGTGTKVRQGTLKKARYNAQCQETIRVTKPCTPKTKAKAKAKKGKGKD
With B1, the binding result in test [1] and in test [2] was “binds” in each case.

The values are drawn from doi:10.1101/2021.03.17.435124.
